PubChem BioAssay AID1259254 – NCATS | 2017
The deposit covers about 59,000 reagents; this is a random part of them. About 1,550 of them (2.6%) count as active. 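G2 share is only a proxy for re-replication; each gene was hit by three separate siRNAs, and active genes were retested.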 Raw values are not corrected between plates. Not stated in the record: the amount of reagent.

Screen: 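Finding genes that stop cells copying their DNA twice in one cycle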 (primary screen)
Cells: human HCT116 colorectal cancer cells
Knock-down reagent: single siRNA against human genes
Timing: 3 days
Measured: 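Nuclei stained with Hoechst and imaged; cell-cycle phase assigned by DNA content; G2 share scaled per plate, non-targeting siRNA 0%, GMNN siRNA 100%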
Direction: G2 robust z-score and G2 cells, % of GMNN control: higher = more G2 cells, more excess DNA replication; raw share of cells in G2: higher = larger share of cells with G2 DNA content
Hit rule: 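Active siRNAs have a G2 robust z of 5 or more median absolute deviations over the median, which in these data means about 38% or higher of GMNN control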

| target gene | PubChem SID | G2 robust z-score | G2 cells, % of GMNN control | raw share of cells in G2 (%) | call |
| --- | --- | --- | --- | --- | --- |
| MADD (MAP kinase activating death domain) | SID160720354 | -0.22 | 1.42 | 6.03 | inactive |
| MADD (MAP kinase activating death domain) | SID160720355 | 0.903 | 9.32 | 8.58 | inactive |
| MADD (MAP kinase activating death domain) | SID160732067 | 0.2 | 4.38 | 5.08 | inactive |
| TM4SF18 (transmembrane 4 L six family member 18) | SID160755414 | -0.265 | 1.1 | 4.53 | inactive |
| TM4SF18 (transmembrane 4 L six family member 18) | SID160755415 | -0.606 | -1.29 | 2.94 | inactive |
| TM4SF18 (transmembrane 4 L six family member 18) | SID160755416 | 0.364 | 5.53 | 3.43 | inactive |
| SIX3 (SIX homeobox 3) | SID160716754 | 3.74 | 29.3 | 17.4 | inactive |
| SIX3 (SIX homeobox 3) | SID160716755 | -1.18 | -5.34 | 2.11 | inactive |
| SIX3 (SIX homeobox 3) | SID160716756 | 6.7 | 50.1 | 21.5 | active |
| CSNK1G3 (casein kinase 1 gamma 3) | SID160749437 | -1.06 | -4.46 | 4.14 | inactive |
| CSNK1G3 (casein kinase 1 gamma 3) | SID160749448 | -1.08 | -4.63 | 3.85 | inactive |
| CSNK1G3 (casein kinase 1 gamma 3) | SID160749459 | -0.653 | -1.63 | 3.45 | inactive |
| TXN2 (thioredoxin 2) | SID160737061 | 3.15 | 25.1 | 17.5 | inactive |
| TXN2 (thioredoxin 2) | SID160737062 | 2.68 | 21.8 | 11.4 | inactive |
| TXN2 (thioredoxin 2) | SID160737063 | 5.47 | 41.5 | 17.6 | active |
| B4GALNT3 (beta-1,4-N-acetyl-galactosaminyltransferase 3) | SID160762876 | -0.741 | -2.25 | 4.93 | inactive |
| B4GALNT3 (beta-1,4-N-acetyl-galactosaminyltransferase 3) | SID160762877 | 0.36 | 5.5 | 7.11 | inactive |
| B4GALNT3 (beta-1,4-N-acetyl-galactosaminyltransferase 3) | SID160762878 | 3.92 | 30.5 | 15.4 | inactive |
| NECAB2 (N-terminal EF-hand calcium binding protein 2) | SID160741908 | 0.885 | 9.19 | 7.64 | inactive |
| NECAB2 (N-terminal EF-hand calcium binding protein 2) | SID160741909 | 0.589 | 7.11 | 6.53 | inactive |
| NECAB2 (N-terminal EF-hand calcium binding protein 2) | SID160741910 | 4.59 | 35.2 | 21.9 | inactive |
| GPR6 (G protein-coupled receptor 6) | SID160773082 | -0.275 | 1.04 | 6.21 | inactive |
| GPR6 (G protein-coupled receptor 6) | SID160773091 | 2.87 | 23.2 | 12.6 | inactive |
| GPR6 (G protein-coupled receptor 6) | SID160773101 | 6.7 | 50.1 | 18.6 | active |
| FOSB (FosB proto-oncogene, AP-1 transcription factor subunit) | SID160730863 | -0.406 | 0.111 | 3.7 | inactive |
| FOSB (FosB proto-oncogene, AP-1 transcription factor subunit) | SID160767100 | 1.63 | 14.4 | 10.5 | inactive |
| FOSB (FosB proto-oncogene, AP-1 transcription factor subunit) | SID160767110 | -0.887 | -3.27 | 4.02 | inactive |
| EEF1A2 (eukaryotic translation elongation factor 1 alpha 2) | SID160758304 | 1.86 | 16.1 | 11.1 | inactive |
| EEF1A2 (eukaryotic translation elongation factor 1 alpha 2) | SID160758314 | 1.42 | 13 | 10.2 | inactive |
| EEF1A2 (eukaryotic translation elongation factor 1 alpha 2) | SID160758325 | 0.181 | 4.24 | 5.17 | inactive |
| CEACAM8 (CEA cell adhesion molecule 8) | SID160742290 | 0.516 | 6.6 | 8.4 | inactive |
| CEACAM8 (CEA cell adhesion molecule 8) | SID160742300 | 5.42 | 41.1 | 19.2 | active |
| CEACAM8 (CEA cell adhesion molecule 8) | SID160742310 | -0.452 | -0.216 | 3.44 | inactive |
| TMEM92 (transmembrane protein 92) | SID160732602 | -0.346 | 0.531 | 2.93 | inactive |
| TMEM92 (transmembrane protein 92) | SID160759923 | 0.867 | 9.07 | 6.85 | inactive |
| TMEM92 (transmembrane protein 92) | SID160759924 | -0.45 | -0.201 | 2.89 | inactive |
| DRC8 (dynein regulatory complex subunit 8) | SID160752065 | 0.436 | 6.04 | 6.12 | inactive |
| DRC8 (dynein regulatory complex subunit 8) | SID160752066 | 0.0742 | 3.49 | 4.49 | inactive |
| DRC8 (dynein regulatory complex subunit 8) | SID160752067 | -0.56 | -0.974 | 2.11 | inactive |
| KIAA1549 | SID160746542 | -0.432 | -0.0702 | 4.32 | inactive |
| KIAA1549 | SID160746543 | -0.123 | 2.1 | 5.46 | inactive |
| KIAA1549 | SID160746544 | -0.892 | -3.31 | 1.98 | inactive |
| OR2L13 (olfactory receptor family 2 subfamily L member 13) | SID160763362 | -0.833 | -2.89 | 2.59 | inactive |
| OR2L13 (olfactory receptor family 2 subfamily L member 13) | SID160763363 | 1.15 | 11.1 | 7.33 | inactive |
| OR2L13 (olfactory receptor family 2 subfamily L member 13) | SID160763364 | -0.152 | 1.89 | 3.84 | inactive |
| AKT1S1 (AKT1 substrate 1) | SID160752187 | -0.0117 | 2.89 | 5.07 | inactive |
| AKT1S1 (AKT1 substrate 1) | SID160752188 | 0.446 | 6.11 | 5.27 | inactive |
| AKT1S1 (AKT1 substrate 1) | SID160752189 | 0.0755 | 3.5 | 3.47 | inactive |
| FGFRL1 (fibroblast growth factor receptor like 1) | SID160741479 | -0.676 | -1.79 | 5.03 | inactive |
| FGFRL1 (fibroblast growth factor receptor like 1) | SID160741480 | -0.395 | 0.186 | 5.26 | inactive |
| FGFRL1 (fibroblast growth factor receptor like 1) | SID160741481 | 2.15 | 18.1 | 9.48 | inactive |
| LOC645984 (retired record) | SID160769759 | -0.672 | -1.76 | 3.11 | inactive |
| LOC645984 (retired record) | SID160769760 | 7.77 | 57.6 | 24.6 | active |
| LOC645984 (retired record) | SID160769762 | 0.533 | 6.72 | 5.18 | inactive |
| SPEG (striated muscle enriched protein kinase) | SID160773255 | -0.528 | -0.747 | 3.8 | inactive |
| SPEG (striated muscle enriched protein kinase) | SID160773256 | 0.317 | 5.2 | 4.97 | inactive |
| SPEG (striated muscle enriched protein kinase) | SID160773257 | -0.743 | -2.26 | 2.35 | inactive |
| CACNA1E (calcium voltage-gated channel subunit alpha1 E) | SID160731896 | -1.08 | -4.64 | 2.56 | inactive |
| CACNA1E (calcium voltage-gated channel subunit alpha1 E) | SID160735298 | 0.86 | 9.02 | 8.57 | inactive |
| CACNA1E (calcium voltage-gated channel subunit alpha1 E) | SID160735309 | 0.125 | 3.84 | 6.08 | inactive |
| RAG2 (recombination activating 2) | SID160715620 | -0.912 | -3.45 | 3 | inactive |
| RAG2 (recombination activating 2) | SID160715621 | 2.69 | 21.9 | 12.5 | inactive |
| RAG2 (recombination activating 2) | SID160715622 | -0.0952 | 2.3 | 5.56 | inactive |
| LRP5 (LDL receptor related protein 5) | SID160776736 | -0.903 | -3.39 | 2.08 | inactive |
| LRP5 (LDL receptor related protein 5) | SID160776737 | -0.0866 | 2.36 | 6.27 | inactive |
| LRP5 (LDL receptor related protein 5) | SID160776738 | 1.09 | 10.7 | 9.69 | inactive |
| TSNARE1 (t-SNARE domain containing 1) | SID160761087 | -0.328 | 0.661 | 3.32 | inactive |
| TSNARE1 (t-SNARE domain containing 1) | SID160761088 | -0.482 | -0.424 | 3.02 | inactive |
| TSNARE1 (t-SNARE domain containing 1) | SID160761089 | -0.917 | -3.48 | 2.3 | inactive |

Active calls (from the list above):
| target gene | PubChem SID | G2 robust z-score | G2 cells, % of GMNN control | raw share of cells in G2 (%) | call |
| --- | --- | --- | --- | --- | --- |
| SIX3 (SIX homeobox 3) | SID160716756 | 6.7 | 50.1 | 21.5 | active |
| TXN2 (thioredoxin 2) | SID160737063 | 5.47 | 41.5 | 17.6 | active |
| GPR6 (G protein-coupled receptor 6) | SID160773101 | 6.7 | 50.1 | 18.6 | active |
| CEACAM8 (CEA cell adhesion molecule 8) | SID160742300 | 5.42 | 41.1 | 19.2 | active |
| LOC645984 (retired record) | SID160769760 | 7.77 | 57.6 | 24.6 | active |
